The source of these data is patent US10906896B2, “Compositions and methods for inhibiting kinases” (Inhibikase Therapeutics, Inc., priority 2015, dated 2021).

The experiment relates to JCV laboratory strain MAD-1. Put plainly: JCV antiviral potency in Cos 7 cells. The experiment is classed as cell-based. The following applies: JC polyomavirus, COS-7, 168 h; read-out: EC50 against JCV (absolute value).

Broadly, the EC50 is the concentration needed to bring the measured effect to its halfway point. With `Cc1ccc(NC(=O)c2ccc(CN3CCN(C)CC3)cc2)cc1Nc1nccc(-c2cccnc2)n1` [imatinib, reference compound], the EC50 worked out at 4.91 µM.
